Measured values published in PMC11733299.
These are yes or no findings as the source states them, for the method shown. In cells and extracts the contact can be indirect. Some entries that bind do so weakly or less than the wild type. Tags and fused reporters may be left off the sequences shown.

What was measured:
[1] = target: T1, cLUC-CNGC5 (Arabidopsis thaliana) (UniProt Q8RWS9); test: split reporter; firefly luciferase complementation in N. benthamiana leaves; nLUC and cLUC fusions co-injected by Agrobacterium GV3101; 1 mM luciferin sprayed 48 h after injection, photos 7 min later
T1 sequence: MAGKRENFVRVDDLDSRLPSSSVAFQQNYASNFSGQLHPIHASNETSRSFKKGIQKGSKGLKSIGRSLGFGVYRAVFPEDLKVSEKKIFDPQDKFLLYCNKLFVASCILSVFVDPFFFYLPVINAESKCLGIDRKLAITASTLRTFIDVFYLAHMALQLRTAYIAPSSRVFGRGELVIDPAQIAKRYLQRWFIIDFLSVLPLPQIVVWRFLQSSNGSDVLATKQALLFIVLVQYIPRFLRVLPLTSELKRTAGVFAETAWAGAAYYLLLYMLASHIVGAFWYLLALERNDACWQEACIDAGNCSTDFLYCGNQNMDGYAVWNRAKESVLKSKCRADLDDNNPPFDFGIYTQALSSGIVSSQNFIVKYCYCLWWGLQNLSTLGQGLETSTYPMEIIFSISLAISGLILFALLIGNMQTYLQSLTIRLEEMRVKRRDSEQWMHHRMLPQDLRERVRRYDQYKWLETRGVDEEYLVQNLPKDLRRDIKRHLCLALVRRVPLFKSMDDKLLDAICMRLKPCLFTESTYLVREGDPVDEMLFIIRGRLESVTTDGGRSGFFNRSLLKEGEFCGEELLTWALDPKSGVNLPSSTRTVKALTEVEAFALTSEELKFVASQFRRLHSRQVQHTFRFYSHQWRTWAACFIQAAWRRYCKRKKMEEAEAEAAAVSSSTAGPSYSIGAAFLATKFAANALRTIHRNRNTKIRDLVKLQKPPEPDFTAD

[2] = target: T2, cLUC-CNGC5-N (Arabidopsis thaliana) (UniProt Q8RWS9); test: as above
T2 sequence: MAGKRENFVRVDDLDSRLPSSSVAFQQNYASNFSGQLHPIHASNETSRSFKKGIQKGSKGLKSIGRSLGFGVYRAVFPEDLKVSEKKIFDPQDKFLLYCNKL

[3] = target: T3, cLUC-CNGC6 (Arabidopsis thaliana) (UniProt O82226); test: as above
T3 sequence: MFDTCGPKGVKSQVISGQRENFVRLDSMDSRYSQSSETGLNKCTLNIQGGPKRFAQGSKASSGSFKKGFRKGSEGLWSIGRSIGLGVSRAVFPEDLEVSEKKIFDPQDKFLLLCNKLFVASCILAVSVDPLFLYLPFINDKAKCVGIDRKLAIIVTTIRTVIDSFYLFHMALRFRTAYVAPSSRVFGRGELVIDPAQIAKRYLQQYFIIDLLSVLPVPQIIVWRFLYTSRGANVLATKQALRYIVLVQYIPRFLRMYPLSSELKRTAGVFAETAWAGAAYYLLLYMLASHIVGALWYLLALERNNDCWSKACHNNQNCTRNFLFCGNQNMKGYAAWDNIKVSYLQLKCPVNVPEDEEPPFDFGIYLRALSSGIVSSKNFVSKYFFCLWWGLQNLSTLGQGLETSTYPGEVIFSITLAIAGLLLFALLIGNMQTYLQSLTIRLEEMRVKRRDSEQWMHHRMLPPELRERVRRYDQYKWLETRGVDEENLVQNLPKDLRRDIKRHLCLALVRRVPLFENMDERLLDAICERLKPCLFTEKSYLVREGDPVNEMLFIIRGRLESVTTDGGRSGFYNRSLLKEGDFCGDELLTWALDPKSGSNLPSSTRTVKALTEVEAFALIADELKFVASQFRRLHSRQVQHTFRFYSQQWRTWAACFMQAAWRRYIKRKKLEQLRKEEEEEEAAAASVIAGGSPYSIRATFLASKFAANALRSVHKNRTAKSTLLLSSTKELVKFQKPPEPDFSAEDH

[4] = target: T4, cLUC-CNGC6-N (Arabidopsis thaliana) (UniProt O82226); test: as above
T4 sequence: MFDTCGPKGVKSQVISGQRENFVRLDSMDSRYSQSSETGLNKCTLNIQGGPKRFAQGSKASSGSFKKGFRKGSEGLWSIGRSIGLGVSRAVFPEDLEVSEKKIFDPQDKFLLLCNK

[5] = target: T5, cLUC-CNGC9 (Arabidopsis thaliana) (UniProt Q9M0A4); test: as above
T5 sequence: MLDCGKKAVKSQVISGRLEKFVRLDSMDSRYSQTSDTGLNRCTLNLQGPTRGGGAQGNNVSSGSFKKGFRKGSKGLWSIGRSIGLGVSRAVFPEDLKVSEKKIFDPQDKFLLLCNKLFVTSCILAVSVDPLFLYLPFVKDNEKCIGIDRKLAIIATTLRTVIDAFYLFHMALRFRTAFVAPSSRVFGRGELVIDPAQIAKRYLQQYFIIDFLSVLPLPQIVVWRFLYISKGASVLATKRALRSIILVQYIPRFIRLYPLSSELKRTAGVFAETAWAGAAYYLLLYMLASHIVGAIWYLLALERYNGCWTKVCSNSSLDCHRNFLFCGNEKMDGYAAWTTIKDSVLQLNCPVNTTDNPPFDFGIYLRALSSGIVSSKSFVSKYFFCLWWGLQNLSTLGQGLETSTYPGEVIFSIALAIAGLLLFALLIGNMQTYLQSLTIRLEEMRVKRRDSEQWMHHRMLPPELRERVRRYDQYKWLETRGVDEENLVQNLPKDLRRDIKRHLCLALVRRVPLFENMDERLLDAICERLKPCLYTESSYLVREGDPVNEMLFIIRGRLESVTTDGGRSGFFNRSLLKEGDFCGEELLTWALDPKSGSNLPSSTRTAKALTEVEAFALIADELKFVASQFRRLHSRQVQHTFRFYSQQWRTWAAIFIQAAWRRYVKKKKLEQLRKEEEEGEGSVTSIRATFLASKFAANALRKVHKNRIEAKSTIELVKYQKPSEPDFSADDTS

[6] = target: T6, cLUC-CNGC9-N (Arabidopsis thaliana) (UniProt Q9M0A4); test: as above
T6 sequence: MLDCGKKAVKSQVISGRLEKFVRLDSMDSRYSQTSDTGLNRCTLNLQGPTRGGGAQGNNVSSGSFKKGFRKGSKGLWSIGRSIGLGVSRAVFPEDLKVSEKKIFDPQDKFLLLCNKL

[7] = target: T7, CPK1-Myc (Arabidopsis thaliana) (UniProt Q06850); test: co-IP; co-expression in N. benthamiana leaves; extract in 150 mM NaCl, 1 mM EDTA, 0.05% NP40, 20 mM Tris-HCl pH 7.5; anti-Myc agarose 6 h at 4 °C; blots with anti-Myc and anti-Flag
T7 sequence: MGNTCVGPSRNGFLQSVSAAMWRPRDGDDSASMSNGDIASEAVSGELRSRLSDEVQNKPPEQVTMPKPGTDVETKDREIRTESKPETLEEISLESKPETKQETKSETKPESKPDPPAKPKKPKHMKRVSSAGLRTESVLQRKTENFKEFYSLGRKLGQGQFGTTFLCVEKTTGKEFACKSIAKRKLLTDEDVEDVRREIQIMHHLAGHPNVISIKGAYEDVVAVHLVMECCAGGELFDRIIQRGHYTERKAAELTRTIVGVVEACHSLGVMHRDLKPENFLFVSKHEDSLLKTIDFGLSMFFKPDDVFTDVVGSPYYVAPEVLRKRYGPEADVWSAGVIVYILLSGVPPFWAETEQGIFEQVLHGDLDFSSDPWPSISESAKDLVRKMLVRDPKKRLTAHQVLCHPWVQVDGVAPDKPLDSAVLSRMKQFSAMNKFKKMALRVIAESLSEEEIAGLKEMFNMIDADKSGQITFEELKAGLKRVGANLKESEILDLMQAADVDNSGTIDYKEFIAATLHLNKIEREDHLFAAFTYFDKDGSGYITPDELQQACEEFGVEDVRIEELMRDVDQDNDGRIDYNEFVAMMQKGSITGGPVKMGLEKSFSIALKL

Measured: binding

B1: CPK1-nLUC (enzyme, UniProt Q06850 1-610)
chain: MGNTCVGPSRNGFLQSVSAAMWRPRDGDDSASMSNGDIASEAVSGELRSRLSDEVQNKPPEQVTMPKPGTDVETKDREIRTESKPETLEEISLESKPETKQETKSETKPESKPDPPAKPKKPKHMKRVSSAGLRTESVLQRKTENFKEFYSLGRKLGQGQFGTTFLCVEKTTGKEFACKSIAKRKLLTDEDVEDVRREIQIMHHLAGHPNVISIKGAYEDVVAVHLVMECCAGGELFDRIIQRGHYTERKAAELTRTIVGVVEACHSLGVMHRDLKPENFLFVSKHEDSLLKTIDFGLSMFFKPDDVFTDVVGSPYYVAPEVLRKRYGPEADVWSAGVIVYILLSGVPPFWAETEQGIFEQVLHGDLDFSSDPWPSISESAKDLVRKMLVRDPKKRLTAHQVLCHPWVQVDGVAPDKPLDSAVLSRMKQFSAMNKFKKMALRVIAESLSEEEIAGLKEMFNMIDADKSGQITFEELKAGLKRVGANLKESEILDLMQAADVDNSGTIDYKEFIAATLHLNKIEREDHLFAAFTYFDKDGSGYITPDELQQACEEFGVEDVRIEELMRDVDQDNDGRIDYNEFVAMMQKGSITGGPVKMGLEKSFSIALKL
not listed: [7]
binds: all other assays above

B2: CNGC5-N-Venus-Flag (domain or fragment, UniProt Q8RWS9 1-102)
chain: MAGKRENFVRVDDLDSRLPSSSVAFQQNYASNFSGQLHPIHASNETSRSFKKGIQKGSKGLKSIGRSLGFGVYRAVFPEDLKVSEKKIFDPQDKFLLYCNKL
binds: [7]
